The text below walks through data of article doi:10.1101/2022.11.11.516101.

The chains behind the UniProt entries cited, without tags or fusion partners.
UniProt Q03195: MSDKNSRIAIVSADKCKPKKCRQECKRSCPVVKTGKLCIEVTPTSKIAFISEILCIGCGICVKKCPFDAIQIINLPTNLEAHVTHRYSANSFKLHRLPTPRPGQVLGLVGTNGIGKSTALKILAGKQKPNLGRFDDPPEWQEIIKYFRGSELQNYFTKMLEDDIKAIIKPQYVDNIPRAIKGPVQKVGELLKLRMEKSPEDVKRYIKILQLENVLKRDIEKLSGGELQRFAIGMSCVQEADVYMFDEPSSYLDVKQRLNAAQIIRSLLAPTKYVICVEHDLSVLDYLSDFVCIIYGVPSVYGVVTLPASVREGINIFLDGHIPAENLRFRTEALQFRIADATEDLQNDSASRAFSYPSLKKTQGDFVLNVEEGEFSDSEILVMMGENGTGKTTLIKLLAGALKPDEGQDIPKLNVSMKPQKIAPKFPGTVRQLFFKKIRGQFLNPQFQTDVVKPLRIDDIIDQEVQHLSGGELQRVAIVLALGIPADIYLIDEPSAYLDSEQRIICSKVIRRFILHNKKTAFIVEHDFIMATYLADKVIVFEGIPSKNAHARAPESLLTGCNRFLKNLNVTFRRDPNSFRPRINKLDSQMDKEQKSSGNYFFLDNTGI

Test in all cases: pull-down
For assay [1], the target named is T1, GFP-tagged Dom34 (S. cerevisiae) (UniProt P33309).
T1 sequence: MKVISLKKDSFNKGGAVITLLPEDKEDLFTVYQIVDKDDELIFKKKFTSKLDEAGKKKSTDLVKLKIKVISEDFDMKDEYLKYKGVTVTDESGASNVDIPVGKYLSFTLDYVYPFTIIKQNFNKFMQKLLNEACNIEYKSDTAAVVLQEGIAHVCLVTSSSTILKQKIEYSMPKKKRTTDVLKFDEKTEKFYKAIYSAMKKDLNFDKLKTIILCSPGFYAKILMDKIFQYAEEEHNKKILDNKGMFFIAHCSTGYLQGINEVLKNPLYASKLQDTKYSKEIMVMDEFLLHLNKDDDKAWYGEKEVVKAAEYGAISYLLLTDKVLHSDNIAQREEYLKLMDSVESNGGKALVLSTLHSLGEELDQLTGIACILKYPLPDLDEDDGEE

In assay [2] the target is T1, GFP-tagged Dom34 (S. cerevisiae). The source holds these as a separate data set.
Assay [3] has as its target T2, preformed complex of GST-Dbp5 and Dom34-GFP (S. cerevisiae) (UniProt P33309+P20449).
T2 sequence 1: T1 sequence
T2 sequence 2: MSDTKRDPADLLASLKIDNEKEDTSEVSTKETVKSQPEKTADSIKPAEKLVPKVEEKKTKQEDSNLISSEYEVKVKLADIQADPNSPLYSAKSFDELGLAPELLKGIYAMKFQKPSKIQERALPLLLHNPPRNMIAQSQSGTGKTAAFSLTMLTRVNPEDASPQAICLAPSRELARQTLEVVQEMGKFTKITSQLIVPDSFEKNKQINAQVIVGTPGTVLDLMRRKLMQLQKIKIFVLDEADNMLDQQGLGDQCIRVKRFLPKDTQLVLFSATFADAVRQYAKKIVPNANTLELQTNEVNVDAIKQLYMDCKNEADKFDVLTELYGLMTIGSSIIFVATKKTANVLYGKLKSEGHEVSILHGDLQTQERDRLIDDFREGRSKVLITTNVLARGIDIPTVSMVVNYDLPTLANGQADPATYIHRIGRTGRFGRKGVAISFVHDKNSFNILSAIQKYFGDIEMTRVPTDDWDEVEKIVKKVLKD

Read-outs that look alike come from different tables or passages of the source. No constants are given. Whether binding was seen depends on the method and setting. In cells and extracts the contact can be indirect. Some binding calls cover weakened binding; strength is not graded here. Sequences can lack the tags named with a protein.

As for “recombinant GST-Rli1 (from UniProt Q03195 1-608)”, the binding result in assay [1] and in assay [2] was “binds” throughout.

B1: MYC-tagged Hbs1 (protein, UniProt P32769 1-611)
chain: MAYSDYSDGADDMPDFHDEGEFDDYLNDDEYDLMNEVFPTLKAQLQDYQGWDNLSLKLALFDNNFDLESTLAELKKTLKKKKTPKKPIAAANGSANVTQKLANISISQQRPNDRLPDWLDEEESEGERNGEEANDEKTVQRYYKTTVPTKPKKPHDISAFVKSALPHLSFVVLGHVDAGKSTLMGRLLYDLNIVNQSQLRKLQRESETMGKSSFKFAWIMDQTNEERERGVTVSICTSHFSTHRANFTIVDAPGHRDFVPNAIMGISQADMAILCVDCSTNAFESGFDLDGQTKEHMLLASSLGIHNLIIAMNKMDNVDWSQQRFEEIKSKLLPYLVDIGFFEDNINWVPISGFSGEGVYKIEYTDEVRQWYNGPNLMSTLENAAFKISKENEGINKDDPFLFSVLEIIPSKKTSNDLALVSGKLESGSIQPGESLTIYPSEQSCIVDKIQVGSQQGQSTNHEETDVAIKGDFVTLKLRKAYPEDIQNGDLAASVDYSSIHSAQCFVLELTTFDMNRPLLPGTPFILFIGVKEQPARIKRLISFIDKGNTASKKKIRHLGSKQRAFVEIELIEVKRWIPLLTAHENDRLGRVVLRKDGRTIAAGKISEITQ
For B1, the binding entry in assay [3] is listed as “binds”.
